Reference: patent US20080317702A1, “METHOD FOR TREATING MICROORGANISMS AND/OR INFECTIOUS AGENTS” (priority 2007, published 2008)
At least one compound was matched to its structure with a doubt left.

Tested on: HeLa cells
Assay: Toxicity to HeLa cells in culture, MTT (Example 23)
Assay type: cell-based, human
Details: 48 hours of culture
Experimental: The toxicity of Example 1 is compared to Chlorohexidine gluconate (a commonly used oral antiseptic) to human HeLa cells in culture is determined. HeLa cells are plated at subconfluency into a 96-well plate tissue culture plate, and after attachment, treated with the indicated final concentrations of Example 1 polymer or Chlorohexidine gluconate in triplicates. After 48 hours of culture, MTT reagent is added for two 2 hours to permit the development of viability-indicating color. 1 μM PAO (phenylarsine oxide) is used as a positive (effective killing) control. […] Furthermore, the minimum inhibitory concentration of Example 1 polymer is found to be about 10^−3% while that for the chlorohexidine gluconate is 6×10^−5%. This means that the Example 1 polymer is about […] less toxic to HeLa cells in culture than chlorohexidine gluconate.

In the case of `N=C(NCCCCCCNC(=N)NC(=N)Nc1ccc(Cl)cc1)NC(=N)Nc1ccc(Cl)cc1.O=C(O)[C@H](O)[C@@H](O)[C@H](O)[C@H](O)CO.O=C(O)[C@H](O)[C@@H](O)[C@H](O)[C@H](O)CO` [chlorohexidine gluconate], the “Lethal dose 50 (LD50) for HeLa cells” value is reported as < 6×104%.
